Laboratory results published in publication doi:10.1101/2020.11.16.384750.
Results are given in words; binding and its absence hold for the method and conditions named. Binding seen in cells or lysates may run through a third protein. These calls come from enrichment with a bait or labelling near it, and not all partners need be listed. Sequences can lack the tags named with a protein.

T1: MAP3K7 (TAK1), C-terminal His-GSG-Flag tagged bait (UniProt O43318)
T1 sequence: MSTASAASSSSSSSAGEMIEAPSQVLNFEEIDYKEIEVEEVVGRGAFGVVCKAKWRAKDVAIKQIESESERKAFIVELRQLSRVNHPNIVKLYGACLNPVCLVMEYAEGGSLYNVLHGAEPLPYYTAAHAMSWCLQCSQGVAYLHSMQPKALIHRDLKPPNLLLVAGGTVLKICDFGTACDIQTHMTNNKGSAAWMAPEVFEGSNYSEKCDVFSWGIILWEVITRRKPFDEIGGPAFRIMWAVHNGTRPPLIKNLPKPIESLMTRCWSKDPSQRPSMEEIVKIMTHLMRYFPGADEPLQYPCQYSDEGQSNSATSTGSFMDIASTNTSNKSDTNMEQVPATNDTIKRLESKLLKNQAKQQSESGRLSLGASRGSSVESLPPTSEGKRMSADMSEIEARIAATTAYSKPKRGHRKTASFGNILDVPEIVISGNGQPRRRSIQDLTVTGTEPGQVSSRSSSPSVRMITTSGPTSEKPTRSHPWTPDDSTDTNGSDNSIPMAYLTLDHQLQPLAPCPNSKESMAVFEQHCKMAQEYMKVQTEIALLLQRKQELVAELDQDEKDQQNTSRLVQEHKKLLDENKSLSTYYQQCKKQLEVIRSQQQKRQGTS

T2: TRAF2, C-terminal His-GSG-Flag tagged bait (wild type) (UniProt Q12933)
T2 sequence: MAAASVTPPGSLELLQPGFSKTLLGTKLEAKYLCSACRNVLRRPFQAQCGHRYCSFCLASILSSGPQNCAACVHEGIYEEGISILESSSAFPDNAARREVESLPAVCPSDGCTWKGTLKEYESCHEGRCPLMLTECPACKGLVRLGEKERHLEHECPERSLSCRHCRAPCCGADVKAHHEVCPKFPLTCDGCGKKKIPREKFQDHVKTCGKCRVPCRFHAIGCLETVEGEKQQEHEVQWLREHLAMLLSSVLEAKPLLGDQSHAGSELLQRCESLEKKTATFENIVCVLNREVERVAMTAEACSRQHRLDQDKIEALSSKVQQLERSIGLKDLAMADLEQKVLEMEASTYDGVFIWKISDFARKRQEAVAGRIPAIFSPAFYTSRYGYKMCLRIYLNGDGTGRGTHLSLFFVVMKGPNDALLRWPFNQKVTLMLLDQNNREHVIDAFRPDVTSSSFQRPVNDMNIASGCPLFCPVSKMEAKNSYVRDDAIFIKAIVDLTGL

B1: TAB1 (protein, UniProt Q15750 1-504)
chain: MAAQRRSLLQSEQQPSWTDDLPLCHLSGVGSASNRSYSADGKGTESHPPEDSWLKFRSENNCFLYGVFNGYDGNRVTNFVAQRLSAELLLGQLNAEHAEADVRRVLLQAFDVVERSFLESIDDALAEKASLQSQLPEGVPQHQLPPQYQKILERLKTLEREISGGAMAVVAVLLNNKLYVANVGTNRALLCKSTVDGLQVTQLNVDHTTENEDELFRLSQLGLDAGKIKQVGIICGQESTRRIGDYKVKYGYTDIDLLSAAKSKPIIAEPEIHGAQPLDGVTGFLVLMSEGLYKALEAAHGPGQANQEIAAMIDTEFAKQTSLDAVAQAVVDRVKRIHSDTFASGGERARFCPRHEDMTLLVRNFGYPLGEMSQPTPSPAPAAGGRVYPVSVPYSSAQSTSKTSVTLSLVMPSQGQMVNGAHSASTLDEATPTLTNQSPTLTLQSTNTHTQSSSSSSDGGLFRSRPAHSLPPGEDGRVEPYVDFAEFYRLWSVDHGEQSVVTAP
B2: TAB2 (protein, UniProt Q9NYJ8 1-693)
chain: MAQGSHQIDFQVLHDLRQKFPEVPEVVVSRCMLQNNNNLDACCAVLSQESTRYLYGEGDLNFSDDSGISGLRNHMTSLNLDLQSQNIYHHGREGSRMNGSRTLTHSISDGQLQGGQSNSELFQQEPQTAPAQVPQGFNVFGMSSSSGASNSAPHLGFHLGSKGTSSLSQQTPRFNPIMVTLAPNIQTGRNTPTSLHIHGVPPPVLNSPQGNSIYIRPYITTPGGTTRQTQQHSGWVSQFNPMNPQQVYQPSQPGPWTTCPASNPLSHTSSQQPNQQGHQTSHVYMPISSPTTSQPPTIHSSGSSQSSAHSQYNIQNISTGPRKNQIEIKLEPPQRNNSSKLRSSGPRTSSTSSSVNSQTLNRNQPTVYIAASPPNTDELMSRSQPKVYISANAATGDEQVMRNQPTLFISTNSGASAASRNMSGQVSMGPAFIHHHPPKSRAIGNNSATSPRVVVTQPNTKYTFKITVSPNKPPAVSPGVVSPTFELTNLLNHPDHYVETENIQHLTDPTLAHVDRISETRKLSMGSDDAAYTQALLVHQKARMERLQRELEIQKKKLDKLKSEVNEMENNLTRRRLKRSNSISQIPSLEEMQQLRSCNRQLQIDIDCLTKEIDLFQARGPHFNPSAIHNFYDNIGFVGPVPPKPKDQRSIIKTPKTQDTEDDEGAQWNCTACTFLNHPALIRCEQCEMPRHF
B3: TAB3 (protein, UniProt Q8N5C8 1-712)
chain: MAQSSPQLDIQVLHDLRQRFPEIPEGVVSQCMLQNNNNLEACCRALSQESSKYLYMEYHSPDDNRMNRNRLLHINLGIHSPSSYHPGDGAQLNGGRTLVHSSSDGHIDPQHAAGKQLICLVQEPHSAPAVVAATPNYNPFFMNEQNRSAATPPSQPPQQPSSMQTGMNPSAMQGPSPPPPPPSYMHIPRYSTNPITVTVSQNLPSGQTVPRALQILPQIPSNLYGSPGSIYIRQTSQSSSGRQTPQSTPWQSSPQGPVPHYSQRPLPVYPHQQNYQPSQYSPKQQQIPQSAYHSPPPSQCPSPFSSPQHQVQPSQLGHIFMPPSPSTTPPHPYQQGPPSYQKQGSHSVAYLPYTASSLSKGSMKKIEITVEPSQRPGTAINRSPSPISNQPSPRNQHSLYTATTPPSSSPSRGISSQPKPPFSVNPVYITYTQPTGPSCTPSPSPRVIPNPTTVFKITVGRATTENLLNLVDQEERSAAPEPIQPISVIPGSGGEKGSHKYQRSSSSGSDDYAYTQALLLHQRARMERLAKQLKLEKEELERLKSEVNGMEHDLMQRRLRRVSCTTAIPTPEEMTRLRSMNRQLQINVDCTLKEVDLLQSRGNFDPKAMNNFYDNIEPGPVVPPKPSKKDSSDPCTIERKARRISVTSKVQADIHDTQAAAADEHRTGSTQSPRTQPRDEDYEGAPWNCDSCTFLNHPALNRCEQCEMPRYT
B4: guanine nucleotide exchange factor ARHGEF18 (protein, UniProt Q6ZSZ5 1-1361)
chain: MGDDQEDDFPRRLSESMEDLSLDLGALQGSEYLQDLGLGAPSHSQPGETPDSRPTGEEPGRDSLFSSLAGSQDLSRRRSWERSRSCSESWRRLSLDASAVDEEPCLPRTLASLALNLPGGGLKTWTQGCLSGGGTPAESPGKECDSPKKRGRSRSVPVSFYEIRSPEISPGLEVPTPPVQGLEPPVLECMEKDHVEPDHVLIVQQVLQELRQYHGARQRACMSASPGGAHSNLTWFEFLSESEDGAGKNEKSDKSTSVKRRLSCLRSRVTRQKEKGKSPAHLKDKGQDARERRECVNGHQLLQGTFSGPSSCPLCGKPFLSSASLKEHPRGTLLSDGSPALSRNVGMTVSQKGGPQPTPSPAGPGTQLGPITGEMDEADSAFLKFKQTADDSLSLTSPNTESIFVEDPYTASLRSEIESDGHEFEAESWSLAVDAAYAKKQKREVVKRQDVLYELMQTEVHHVRTLKIMLKVYSRALQEELQFSSKAIGRLFPCADDLLETHSHFLARLKERRQESLEEGSDRNYVIQKIGDLLVQQFSGENGERMKEKYGVFCSGHNEAVSHYKLLLQQNKKFQNLIKKIGNFSIVRRLGVQECILLVTQRITKYPVLVERIIQNTEAGTEDYEDLTQALNLIKDIISQVDAKVSECEKGQRLREIAGKMDLKSSSKLKNGLTFRKEDMLQRQLHLEGMLCWKTTSGRLKDILAILLTDVLLLLQEKDQKYVFASVDSKPPVISLQKLIVREVANEEKAMFLISASLQGPEMYEIYTSSKEDRNAWMAHIQRAVESCPDEEEGPFSLPEEERKVVEARATRLRDFQERLSMKDQLIAQSLLEKQQIYLEMAEMGGLEDLPQPRGLFRGGDPSETLQGELILKSAMSEIEGIQSLICRQLGSANGQAEDGGSSTGPPRRAETFAGYDCTNSPTKNGSFKKKVSSTDPRPRDWRGPPNSPDLKLSDSDIPGSSEESPQVVEAPGTESDPRLPTVLESELVQRIQTLSQLLLNLQAVIAHQDSYVETQRAAIQEREKQFRLQSTRGNLLLEQERQRNFEKQREERAALEKLQSQLRHEQQRWERERQWQHQELERAGARLQEREGEARQLRERLEQERAELERQRQAYQHDLERLREAQRAVERERERLELLRRLKKQNTAPGALPPDTLAEAQPPSHPPSFNGEGLEGPRVSMLPSGVGPEYAERPEVARRDSAPTENRLAKSDVPIQLLSATNQFQRQAAVQQQIPTKLAASTKGGKDKGGKSRGSQRWESSASFDLKQQLLLNKLMGKDESTSRNRRSLSPILPGRHSPAPPPDPGFPAPSPPPADSPSEGFSLKAGGTALLPGPPAPSPLPATPLSAKEDASKEDVIFF
B5: FOSB (protein, UniProt P53539 1-338)
chain: MFQAFPGDYDSGSRCSSSPSAESQYLSSVDSFGSPPTAAASQECAGLGEMPGSFVPTVTAITTSQDLQWLVQPTLISSMAQSQGQPLASQPPVVDPYDMPGTSYSTPGMSGYSSGGASGSGGPSTSGTTSGPGPARPARARPRRPREETLTPEEEEKRRVRRERNKLAAAKCRNRRRELTDRLQAETDQLEEEKAELESEIAELQKEKERLEFVLVAHKPGCKIPYEEGPGPGPLAEVRDLPGSAPAKEDGFSWLLPPPPPPPLPFQTSQDAPPNLTASLFTHSEVQVLGDPFPVVNPSYTSSFVLTCPEVSAFAGAQRTSGSDQPSDPLNSPSLLAL
B6: TNF receptor-associated factor TRAF1 (protein, UniProt Q13077 1-416)
chain: MASSSGSSPRPAPDENEFPFGCPPTVCQDPKEPRALCCAGCLSENPRNGEDQICPKCRGEDLQSISPGSRLRTQEKAHPEVAEAGIGCPFAGVGCSFKGSPQSVQEHEVTSQTSHLNLLLGFMKQWKARLGCGLESGPMALEQNLSDLQLQAAVEVAGDLEVDCYRAPCSESQEELALQHFMKEKLLAELEGKLRVFENIVAVLNKEVEASHLALATSIHQSQLDRERILSLEQRVVELQQTLAQKDQALGKLEQSLRLMEEASFDGTFLWKITNVTRRCHESACGRTVSLFSPAFYTAKYGYKLCLRLYLNGDGTGKRTHLSLFIVIMRGEYDALLPWPFRNKVTFMLLDQNNREHAIDAFRPDLSSASFQRPQSETNVASGCPLFFPLSKLQSPKHAYVKDDTMFLKCIVETST
B7: TRAF family member-associated NFκB activator TANK (protein, UniProt Q92844 1-425)
chain: MDKNIGEQLNKAYEAFRQACMDRDSAVKELQQKTENYEQRIREQQEQLSLQQTIIDKLKSQLLLVNSTQDNNYGCVPLLEDSETRKNNLTLDQPQDKVISGIAREKLPKVRRQEVSSPRKETSARSLGSPLLHERGNIEKTFWDLKEEFHKICMLAKAQKDHLSKLNIPDTATETQCSVPIQCTDKTDKQEALFKPQAKDDINRGAPSITSVTPRGLCRDEEDTSFESLSKFNVKFPPMDNDSTFLHSTPERPGILSPATSEAVCQEKFNMEFRDNPGNFVKTEETLFEIQGIDPIASAIQNLKTTDKTKPSNLVNTCIRTTLDRAACLPPGDHNALYVNSFPLLDPSDAPFPSLDSPGKAIRGPQQPIWKPFPNQDSDSVVLSGTDSELHIPRVCEFCQAVFPPSITSRGDFLRHLNSHFNGET

Each binder was assayed against T1, MAP3K7 (TAK1), C-terminal His-GSG-Flag tagged bait (assay: affinity purification with mass spectrometry).

binding, binds:
B1
B2
B3
B4
B5

Each binder was assayed against T2, TRAF2, C-terminal His-GSG-Flag tagged bait (wild type) (assay: affinity purification with mass spectrometry).

binding, binds:
B6
B7
